Data from the supplement of paper PMC10338343.
± gives the standard deviation. Only a part is listed here, and it is no random draw. Many entries were measured with a wide error.

Assays:
[1] = tested on: MILI (PIWIL2) piRISC loaded with piRNA #1 (26 nt); test: pre-steady-state target cleavage rate (min^-1); higher = faster piRNA-guided slicing of the target; conditions: guide: piRNA #1 5'p-UGAGGUAGUAGGUUGUAUAGUAUCCA; auxiliary factor: 500 nM mouse GTSF1
How it was run: (§1)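 Cleave-'n-Seq used a transcribed, DNA-blocked target RNA library at 0.1 nM and active affinity-purified piRISC with one synthetic guide at 1 nM, with or without 500 nM GTSF1 partner protein, in HEPES–potassium acetate buffer at 33 °C for 0–8 or 0–960 min. Uncleaved targets were sequenced and normalised to depth and to weakly complementary targets, and three trials were pooled with k3 capped at 0.0001 min^-1. The pre-steady-state cleavage rate was estimated by a burst-and-steady-state fit.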

[2] = tested on: MIWI (PIWIL1) piRISC loaded with piRNA #1 (30 nt); test: as above; conditions: guide: piRNA #1 5'p-UGAGGUAGUAGGUUGUAUAGUAUCCAGAGG; auxiliary factor: 500 nM mouse GTSF1
How it was run: as §1

[3] = tested on: EfPiwi piRISC loaded with piRNA #1 (26 nt); test: pre-steady-state target cleavage rate (min^-1); guide: piRNA #1 5'p-UGAGGUAGUAGGUUGUAUAGUAUCCA; MIWI and MILI are mouse PIWI proteins and EfPiwi is from a freshwater sponge; tags in brackets are library labels; higher = faster piRNA-guided slicing of the target; conditions: auxiliary factor: 500 nM Ephydatia muelleri Gtsf1
How it was run: as §1

Row | Sequence | pre-steady-state target cleavage rate [1] | pre-steady-state target cleavage rate [2] | pre-steady-state target cleavage rate [3]
1 | GGAGACCUAUGAUAAGAACCAACUACCUCA | 0.000257 ± 0.011 | 0.000102 ± 0.025 | 0.000527 ± 0.011
2 | GGAGACCUAUGAUAACAACCUACUAGCUCA | 0.00272 ± 0.003 | 0.000612 ± 0.0076 | 0.000282 ± 0.0081
3 | GGAGACCUAUGAUUACAACCUUCUACGUCA | 0.00114 ± 0.0049 | 0.00136 ± 0.0035 | 0.00117 ± 0.0057
4 | GGAGACCUAUGAUAUGUACCCUACUACCUCA | 0.00154 ± 0.0033 | 0.000239 ± 0.01 | 0.000657 ± 0.01
5 | GGAGUGGAUACUAUAGAACCUACUUCCUCA | 0.00147 ± 0.0034 | 0.00111 ± 0.0044 | 0.00134 ± 0.0024
6 | GGAGACCUAUGUAUACAACCUACUUGGAGA [g7:g19:cont:t1A] | 0.00128 ± 0.0056 | 0.00107 ± 0.0047 | 0.000472 ± 0.0094
7 | GGAGACCUAUGAUUUCAACCUACUAGCUCA | 0.00216 ± 0.003 | 0.000142 ± 0.018 | 0.000318 ± 0.0086
8 | GGAGACCUAUGAUAUGUUGGUACUACCACA | 0.000341 ± 0.013 | 0.000543 ± 0.0073 | 0.000439 ± 0.0073
9 | GGAGACCUAUGAUAUCAUCCAACUACCUCA | 0.000447 ± 0.0077 | 0.000509 ± 0.0089 | 0.000253 ± 0.013
10 | GGAGACCUAUGAAUACAACCUUCUACGUCA | 0.00102 ± 0.0062 | 0.000496 ± 0.0038 | 0.000763 ± 0.0075
11 | GGAGACCUAUGAUUACAACCUACUAUCUCA | 0.00332 ± 0.0022 | 0.000269 ± 0.0073 | 0.000633 ± 0.0061
12 | GGAGACCUAUGAUUACAACCUACCUACCUCA | 0.00646 ± 0.0028 | 0.00168 ± 0.0029 | 0.000959 ± 0.0086
13 | GGAGACCUAUGAAUACAUCCUAGUACCUCA | 0.0023 ± 0.0027 | 0.00016 ± 0.015 | 0.000247 ± 0.011
14 | GGAGACCUAUGAUAUCAACGUACUACCUGA | 0.000836 ± 0.0095 | 0.000814 ± 0.0052 | 0.000307 ± 0.0095
15 | GGAGACCUAUGAUAACUACCUACUAGCUCA | 0.00197 ± 0.0041 | 0.00011 ± 0.018 | 0.000277 ± 0.0084
16 | GGAGACCUAUGAUAUGUUGCUACUACCACA | 0.000405 ± 0.01 | 0.000902 ± 0.0041 | 0.000696 ± 0.0042
17 | GGAGACCUAUGAUUACAACCUACUACCCA | 0.00105 ± 0.0065 | 0.000526 ± 0.0092 | 0.00031 ± 0.015
18 | GGAGACCUAUGAUAUGUACGUACUACGUCA | 0.000945 ± 0.0076 | 0.00139 ± 0.0051 | 0.000942 ± 0.0054
19 | GGAGACCUAUGAUAACAGCCUACUACCUCA | 0.000889 ± 0.0072 | 0.000275 ± 0.0082 | 0.00116 ± 0.0052
20 | GGAGACCUAUGAUAUGUUGCUACUUCGUCA | 0.000273 ± 0.011 | 0.000883 ± 0.0066 | 0.000783 ± 0.0057
21 | GGAGACCUAUGAUAACUACCUACUACCUCA | 0.00161 ± 0.0031 | 0.000209 ± 0.01 | 0.000993 ± 0.0052
22 | GGAGACCUAUGUAUACAACCUACUUCGUCA | 0.0106 ± 0.0032 | 0.00233 ± 0.003 | 0.000178 ± 0.013
23 | GGAGACCUAUGAUAUCAACCAUCUACCUCA | 0.000896 ± 0.0055 | 0.000164 ± 0.013 | 0.00019 ± 0.014
24 | GGAGACCUAUGAUAUGUUGCUACUACCUCG [g2:g11:cont:t1G] | 0.000325 ± 0.015 | 0.000617 ± 0.007 | 0.000672 ± 0.008
25 | GGAGACCUAUGUAUACAACCUACUUCCUGA | 0.00819 ± 0.0021 | 0.00103 ± 0.0039 | 0.000434 ± 0.0087

Row | Sequence | pre-steady-state target cleavage rate [1] | pre-steady-state target cleavage rate [2] | pre-steady-state target cleavage rate [3]
26 | GGAGACCUAUGAUUACAACCCUACUACCUCA | 0.000815 ± 0.0052 | 0.000232 ± 0.0065 | 0.000809 ± 0.0083
27 | GGAGACCUAUGAUAUGUACUACUACCUCA | 0.000139 ± 0.013 | 0.000428 ± 0.0083 | 0.00151 ± 0.0051
28 | GGAGACCUAUGAUAACAACCAACUUCCUCA | 0.000655 ± 0.0066 | 0.00028 ± 0.0063 | 0.000621 ± 0.01
29 | GGAGACCUAUGAUAUCAACGUACUACCUCA | 0.00159 ± 0.0028 | 0.000234 ± 0.0081 | 0.000346 ± 0.0066
30 | GGAGACCUAUGAAUACAAGCUACUAGCUCA | 0.00622 ± 0.0027 | 0.000161 ± 0.013 | 0.000352 ± 0.008
31 | GGAGACCUAUGAUAUGUACCAUGUACCUCA | 0.000326 ± 0.018 | 0.000457 ± 0.01 | 0.00024 ± 0.013
32 | GGAGACCUAUCUAUACAACCUACAUGCUCA | 0.068 ± 0.021 | 0.00132 ± 0.006 | 0.000153 ± 0.021
33 | GGAGACGAUACUAUACAACCUACACCUCA | 0.00588 ± 0.0025 | 0.000815 ± 0.0064 | 0.00474 ± 0.0027
34 | GGAGACCUAUGAUUACAACGUACUAGCUCA | 0.00212 ± 0.0044 | 0.000124 ± 0.017 | 0.000862 ± 0.0062
35 | GGAGACCUAUGAUAACAACCAACUACCACA | 0.00177 ± 0.004 | 0.000207 ± 0.011 | 0.000411 ± 0.029
36 | GGAGACCUAUGAUAUGUUCUACUACCUCA | 0.00012 ± 0.023 | 0.00044 ± 0.011 | 0.000659 ± 0.0069
37 | GGAGACCUAUGAAUACAACCUACAACCUGA | 0.000919 ± 0.0057 | 0.000114 ± 0.019 | 0.000272 ± 0.0094
38 | GGAGACCUAUGAUAUGUUCCAUACUACCUCA | 0.000557 ± 0.01 | 0.00108 ± 0.0051 | 0.00048 ± 0.0065
39 | GGAGACCUAUGAUUUCAACCUACUACGUCA | 0.000311 ± 0.0072 | 0.000562 ± 0.0032 | 0.000225 ± 0.012
40 | GGAGACCUAUGAUAUGUAGGUACUACCUCA | 0.000341 ± 0.011 | 0.000446 ± 0.0094 | 0.000354 ± 0.0053
41 | GGAGACCUAUGAUAUCAAUCUACUACCUCA | 0.000798 ± 0.0075 | 0.000138 ± 0.016 | 0.000306 ± 0.0062
42 | GGAGACCUAACUAAACAACCAACUACCUCA | 0.00427 ± 0.005 | 0.00167 ± 0.0071 | 0.00149 ± 0.0072
43 | GGAGACCUAUGAUUACAACCCACUACCUCA | 0.00245 ± 0.0035 | 0.00121 ± 0.0035 | 0.00187 ± 0.0077
44 | GGAGACCUAUGAUAACAACCUACUACCAUCA | 0.00305 ± 0.0034 | 0.00102 ± 0.0053 | 0.000334 ± 0.018
45 | GGAGACCUAUGAUAUCAACCUUCUACCACA | 0.000228 ± 0.014 | 0.000167 ± 0.014 | 0.000132 ± 0.016
46 | GGAGACCUAUGAUAACAAGCUACUACGUCA | 0.00208 ± 0.0042 | 0.00107 ± 0.0061 | 0.00139 ± 0.0048
47 | GGAGACCUAUGAUUACAACCUAACUACCUCA | 0.00301 ± 0.0031 | 0.000806 ± 0.005 | 0.000543 ± 0.01
48 | GGAGACCUAUGAUUACAACCAACUUCCUCA | 0.00254 ± 0.0035 | 0.000427 ± 0.0052 | 0.000345 ± 0.011
49 | GGAGACCUAUCUAUAGAACCUAGUACCUCA | 0.00211 ± 0.0024 | 0.0363 ± 0.0089 | 0.00025 ± 0.009
50 | GGAGACCUAUGAUAUGUUGCUACUACCAUCA | 0.000603 ± 0.01 | 0.00102 ± 0.0056 | 0.000309 ± 0.0077

Single records, as listed above. Values in the order: pre-steady-state target cleavage rate [1] | pre-steady-state target cleavage rate [2] | pre-steady-state target cleavage rate [3]
GGAGACCUAUGAUUACAACGUACUAGCUCA in the list: 0.00212 ± 0.0044 | 0.000124 ± 0.017 | 0.000862 ± 0.0062
GGAGACCUAUGAUAUGUUCUACUACCUCA in the list: 0.00012 ± 0.023 | 0.00044 ± 0.011 | 0.000659 ± 0.0069
GGAGACCUAACUAAACAACCAACUACCUCA in the list: 0.00427 ± 0.005 | 0.00167 ± 0.0071 | 0.00149 ± 0.0072
GGAGACCUAUGAUUACAACCAACUUCCUCA in the list: 0.00254 ± 0.0035 | 0.000427 ± 0.0052 | 0.000345 ± 0.011
